In PubChem BioAssay AID540256 (National Center for Advancing Translational Sciences (NCATS), 2011):
Screen size: about 300,000 compounds; about 3,700 (1.2%) were called active. This list was built around the results that the source calls inconclusive (neither active nor inactive); the mix of calls is not that of the screen. Calls come from the whole dose curve; tested in HEK293 cells. Where the call is inconclusive, the potency comes from a doubtful curve fit.

Experiment: qHTS for Inhibitors of binding or entry into cells for Lassa Virus; note: nearly all actives have a fitted effect of over 50% in size
Conditions: Lassa virus pseudotype entry inhibition, cell reporter; activity change, negative = inhibition: at 37.9 µM (top of the series) unless noted
% is set by controls: 0 for no effect and ±100 for the full control effect; potency is the fitted concentration of half-maximal effect.

Structure (SMILES) | Potency | activity change, negative = inhibition
Cc1cc(C)cc(N(CC(=O)NC2CCCCC2)C(=O)c2csnn2)c1 | inconclusive: 5.01 µM [inhibitor, single point] | 
Cc1ccc(N2C(N)=C(C#N)C(c3cccnc3)C3=C2CC(C)(C)CC3=O)cc1 (configuration not stated) | inconclusive: 8.91 µM [inhibitor, partial curve, poor fit] | 
CCOC(=O)c1c(C)sc(-c2c(-c3ccccc3)[nH]c3[nH]c(=O)[nH]c(=O)c23)c1O |  | inconclusive: 8.65% [activator] [at 46.1 µM]
O=S(=O)(Nc1ccc(-c2ccc(N3CCOCC3)nn2)cc1)c1cc(Cl)ccc1Cl | inconclusive: 31.6 µM [activator, single point] | 
COc1cc(NC(=O)c2ccccc2)cc(OC)c1 |  | inactive: 0.673%
CCc1ccc(N=C2NC(=O)/C(=C/c3cc(OC)c(OC)c(OC)c3)S2)cc1 | inconclusive: 5.62 µM [inhibitor, partial curve, poor fit] | 
Nc1ccc2nc(SCC(=O)N3CCN(c4ccccc4)CC3)sc2c1 | inconclusive: 10 µM [inhibitor, partial curve, poor fit] | 
Cc1cccc(Nc2nnc(SCC(=O)Nc3ccccc3[N+](=O)[O-])s2)c1C | inconclusive: 29.1 µM [inhibitor, single point] | 
Clc1ccc(Cn2ccc(C3CC3)n2)cc1 | inconclusive: 14.1 µM [activator, single point] | 
O=C(Nc1cccc(-c2nc3ccccc3[nH]2)c1)c1ccc(C(=O)Nc2cccc(-c3nc4ccccc4[nH]3)c2)cc1 | inconclusive: 15.8 µM [activator, single point] | 
CCCCn1c(CNC(=O)C23CC4CC(CC(C4)C2)C3)nnc1SCC(=O)Nc1ccc(C)cc1 | inconclusive: 35.5 µM [inhibitor, single point] | 
O=C(Nc1ccc(S(=O)(=O)N2CCC(c3nc4ccccc4s3)CC2)cc1)c1ccccc1 |  | inactive: 1.39% [at 46.1 µM]
Cc1ccc(-c2nc3sc4c(N)ncnc4c3c3c2CCCC3)cc1 | inconclusive: 29.1 µM [inhibitor, single point] | 
COc1cc(CNCCN2CCOCC2)ccc1OCc1ccc(Cl)cc1Cl | inconclusive: 35.5 µM [inhibitor, single point] | 
Cc1ccc(CNC(=O)Nc2cc(C(=O)NCc3cccc(F)c3)ccc2N2CCCC2)cc1 | inconclusive: 7.08 µM [inhibitor, partial curve, poor fit] | 
O=C(Nc1cc(Cl)ccc1Cl)c1ccc(OC(=O)c2ccco2)cc1 | inconclusive: 0.0046 µM [activator, full curve, poor fit] | 
O=C(CCNc1ccc(Br)cc1)c1cccc([N+](=O)[O-])c1 |  | inactive: -14.8%
Cc1ccccc1-n1c(/C=C/c2ccc(N(C)C)cc2)nc2ccccc2c1=O | inconclusive: 8.91 µM [inhibitor, single point] | 
COc1ccc(C)cc1NC(=O)CSc1nnc2ccc(-c3cccnc3)nn12 | inconclusive: 0.0891 µM [inhibitor, full curve, poor fit] | 
COCCNC(=S)N1CCc2cc(OC)c(OC)cc2C1COc1ccc(C(C)C)cc1 (configuration not stated) | inconclusive: 10 µM [inhibitor, partial curve, poor fit] | 
COc1ccc(C(C)=O)cc1CC(=O)NCCCn1ccnc1 | inconclusive: 0.316 µM [inhibitor, full curve, poor fit] | 

Structure (SMILES) | Potency | activity change, negative = inhibition
COC(=O)/C(C#N)=C/c1c(N2CCCCCC2)nc2ccccn2c1=O | inconclusive: 0.631 µM [inhibitor, partial curve, poor fit] | 
O=C(CNCCC1=CCCCC1)Nc1ccc(N2CCCCCC2)cc1 | inconclusive: 18.3 µM [inhibitor, single point] | 
Cc1cccc(C)c1OCC(O)CNS(=O)(=O)c1ccccc1C(=O)N1CCCCC1 (configuration not stated) |  | inactive: -11.6%
O=C(Cc1cccs1)Nc1nc2c(ccc3ccccc32)s1 | active: 7.94 µM | 
CCOC(=O)c1sc(NC(=S)NC(=O)c2ccco2)nc1C |  | inactive: 13.6%
OCC1CCN(Cc2nc(Cc3ccccc3Cl)no2)CC1 |  | inactive: -3.33% [at 46.1 µM]
CC1CCN(S(=O)(=O)c2ccc(C(=O)Nc3nnc(C4CC4)o3)cc2)CC1 | inconclusive: 15.8 µM [inhibitor, single point] | 
N#CC1=C(N)Nc2nc3ccccc3n2C1c1ccc(Cl)cc1 (configuration not stated) |  | inactive: 7.07%
COc1ccccc1CN(Cc1nc2ccccc2c(=O)[nH]1)S(=O)(=O)c1ccc2ccccc2c1 | inconclusive: 18.3 µM [inhibitor, partial curve, poor fit] | 
Cc1ccc(CN(C(=O)COc2ccccc2Cl)c2ccccn2)o1 | inconclusive: 0.562 µM [activator, full curve, poor fit] | 
O=C(Nc1c2c(nn1-c1ccccc1)CS(=O)(=O)C2)c1ccco1 |  | inactive: 11.3%
CCn1c(=O)c2c(nc3n2CCN3c2ccc(OC)cc2)n(C)c1=O | inconclusive: 35.5 µM [activator, single point] | 
Cc1cccc(NC(=S)N/N=C/c2c[nH]c3ccccc23)c1 | inconclusive: 8.2 µM [inhibitor, partial curve, poor fit] | 
CCN(CC)CCN1c2ccccc2Sc2ccc3ccccc3c21 |  | inactive: 10.8% [at 46.1 µM]
Cc1ccc(-c2noc(CCC(=O)N(C)c3ccccc3F)n2)cc1 | inconclusive: 7.94 µM [inhibitor, partial curve, poor fit] | 
CCN(CC)CCn1c2c(c(SCC(=O)Nc3ccc(F)c(F)c3)nc1=O)CCC2 |  | inactive: -19.3%
Cc1cc(C(=O)COc2cccc3cccnc23)c(C)n1C | inconclusive: 35.5 µM [activator, single point] | 
CC1CN(C(=O)COc2ccc3ccccc3c2)CC(C)O1 (configuration not stated) |  | inactive: 6.42%
O=C(NCCNC(=O)c1ccccn1)c1ccccc1 |  | inconclusive: 5.89% [activator] [at 46.1 µM]
CC(C)NC(=O)NNC(=O)c1cc(COc2cc(Cl)cc(Cl)c2)on1 | inconclusive: 0.891 µM [inhibitor, full curve, poor fit] | 
CC(=O)Nc1ccc(C(=O)NCCCOC(C)C)cc1 | inconclusive: 0.562 µM [activator, full curve, poor fit] | 

Pulled one by one from the list above (2):
Structure (SMILES) | Potency | activity change, negative = inhibition
O=C(Nc1cccc(-c2nc3ccccc3[nH]2)c1)c1ccc(C(=O)Nc2cccc(-c3nc4ccccc4[nH]3)c2)cc1 | inconclusive: 15.8 µM [activator, single point] | 
Cc1cc(C(=O)COc2cccc3cccnc23)c(C)n1C | inconclusive: 35.5 µM [activator, single point] | 
